Measured values as given in US20030049807A1, “Micro-organism possessing enantioselective and regioselective nitrile hydratase/amidase activities” (priority 2001, published 2003).
The name of at least one read-out is uncertain.

System: nitrile hydratase/amidase activity of bacterial pellet of strain NCIMB 41108
Assay: Enzymatic activity of the whole-cell biocatalyst (wet bacterial pellet) towards nitrile/amide substrates, HPLC or GC
Type: cell-based, Agrobacterium radiobacter 30″60
Conditions: 30° C.
Method: The enzymatic activity was evaluated using a bacterial pellet obtained after fermentation for 48 hours in fermentation medium as described below. Briefly, the culture was amplified from a single colony to begin with in a small volume of inoculating medium and then, for preparative purposes, in 100 ml of fermentation medium.
Fermentation medium: MgSO4 (0.5 g l^−1), ,CaCl2.6H2O (0.1 g l^−1), FeSO4 (0.4 g l^−1), CoCl2 (0.1 g l^−1), MnSO4 (0.01 g l^−1), (NH4)2SO4 (5 g l^−1), Yeast Extract (10 g l^31 1). The inducer, or the inducers, were added to the fermentation medium alone or in combination, sterilely, to a final concentration comprised of between 0.5-5 g/L. In particular, if not stated differently, valeronitrile, N-butyronitrile, isobutyronitrile and ε-caprolactam were used at a concentration respectively of 2.5 g/l and added in a single solution at the start of the process. To measure the basal activity of the strain 41108, no inducer was added to the fermentation medium.
Inoculation. 10 ml of the pre-inoculation, was inoculated in 100 ml of fermentation medium containing or lacking inducer, in a 0.5 L flask and grown at 30° C., for 24-72 hours, with agitation at 300 rpm. (if conducted on a lager scale, for example in a 101 fermenter, aeration was effected at a pressure of 0.5 Kg/cm^2 and at a flow rate of 1.0 vvm with dried, filter-sterilised air) The bacteria were recovered by centrifugation and the bacterial precipitate (pellet) washed twice with isotonic saline and maintained at 4° C. until the time of use (wet bacterial pellet or bacterial paste). This bacterial precipitate constitutes the bacterial biocatalyst.
Reaction scheme. To the cellular paste (250 mg, unless indicated otherwise) in phosphate buffer 35 mM, pH 7.7 (5 ml, unless indicated otherwise), containing Triton X-100 or Tween 80 at a final concentration of 2.66%, was added the substrate solution dissolved in methanol in a volume equal to 5-10% of the final volume (250 μl, unless indicated otherwise) and the reaction mixture incubated at 30° C. or at other temperatures, as indicated in the examples. At preset time intervals, aliquots of the mixture were sterilely removed with a syringe, using a Minisart RC 25 filter 0,22 μm (Sartorius, Germany) and directly analysed by HPLC. The enzymatic activity was determined by the mean activity measured in the initial, linear phase of the conversion curve, relative to the wet weight of the bacterial paste. The specific activity U (μmol min^−1) per gram of wet weight was indicated as IU g^−1.
Evaluation of the conversion percentages and of the enantiomeric excess. The percentage conversion of the substrate was measured by reverse phase HPLC using a reverse phase column of dimensions: 250×4.6 mm; 10 μm (Lichrosorb 10 RP18), and phosphate buffer at various percentages (10 mM, pH 2.5 e 3.5) with acetonitrile at 40 or 50% depending on the molecule to be detected. A flow rate of 1.0 ml min^−1 was used, and a detection wavelength of 220-254 nm. The e.e. values of the reaction products obtained from benzoylphenylpropionitrile were determined by HPLC fitted with a chiral column (dimensions: 100×4 mm; Chromtech AGP-column) and phosphate buffer used as eluent (10 mM, pH 7.0) with isopropanol (1%, v/v) and dimethyloctylamine (0,02%, v/v). Enantiomeric excess of α-phenylpropionic acid was determined by HPLC on the same column (100×4 mm; Chromtech AGP-column), using phosphate buffer as eluent (20 mM, pH 5.0, ) with dimethyloctylamine (0.04%, v/v). The e.e. values of the reaction products obtained from α-methyl-4-(2-thienylcarbonyl)-benzene-acetonitrile were determined by HPLC fitted with a chiral column (dimensions: 100×4 mm; Chromtech AGP-column) and potassium phosphate buffer used as eluent (20 mM, pH 7.0) with dimethyloctylamine (0,1%, v/v). […]

[1] = pellet induced with valeronitrile 0,2%, 50 mg substrate, 250 mg wet pellet, 2 hours

`CC(C#N)c1cccc(C(=O)c2ccccc2)c1` (racemic) [benzoylphenylpropionitrile, 2-(3-benzoylphenyl)propionitrile] was tested, and the enzymatic activity (non-induced pellet (basal), 50 mg substrate, 250 mg wet pellet, 17 hours) was 0.08 IU g^−1 of wet cells, the enzymatic activity (pellet induced with valeronitrile 0,25%, 50 mg substrate, 250 mg wet pellet, 1 hour) was 5.66 IU g^−1 of wet cells and the enzymatic activity (pellet induced with valeronitrile 0,25%, 50 mg substrate, 250 mg wet pellet, 17 hours) was 0.83 IU g^−1 of wet cells.

For `CC(C)Cc1ccc(C(C)C(N)=O)cc1` (racemic) [α-methyl-4-(2-methylpropyl)benzene-acetamide], the enzymatic activity [1] was 3.24 IU g^−1 of wet cells.

For `CC(C#N)c1ccc(C(=O)c2cccs2)cc1` (racemic) [α-methyl-4-(2-thienylcarbonyl)benzene-acetonitrile], the enzymatic activity (pellet induced with isobutyronitrile (0.2%), 50 mg substrate, 250 mg wet pellet, 28 hours) was 0.21 IU g^−1 of wet cells, the enzymatic activity [1] was 1.87 IU g^−1 of wet cells and the enzymatic activity (pellet induced with ε-caprolactam (0.2%), 50 mg substrate, 250 mg wet pellet, 5 hours) was 1.30 IU g^−1 of wet cells.

`CCCCC(C#N)CC` (centres unmarked) [2-ethyl-hexanonitrile] was tested, and the enzymatic activity (pellet induced with valeronitrile 0,25%, 100 mg substrate, 100 mg wet pellet, 32 hours, gas chromatography) was 3.61 IU g^−1 of wet cells.
